Measurements reported in PubChem BioAssay AID1508597 (Cure First, 2020)
Purpose: 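Survival screen with siRNA in ovarian cancer cells derived from patients, with or without rucaparib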 (primary screen). Cell system: human ovarian carcinoma lines grown from tumours: OCI-P5x (papillary serous) and OCI-C5x (clear cell). Reagent: siRNA pool against human genes, 1.25 pmol siRNA per well. Time to read-out: 72 h or 96 h, depending on the cell culture. Challenge: rucaparib 20 µM (about IC30) or vehicle, present until read-out. Measured: 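ATP luminescence measured at 72 or 96 h according to the culture, then normalised and expressed as percent viability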. Direction: viability, normalised: higher = more viable cells remaining. Rule for the call: 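a well counts as a hit if its normalised viability is under 80 percent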. Calls: active = viability under 80%; inactive = viability 80% or more.
Here is a random part of about 2,100 deposited reagents. 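Calls flag viability under 80% in either arm, not effects specific to rucaparib; the reference for percent is not stated.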 A number with no mark means an inactive call. The record does not give: the 100% reference.

no.	target gene	rucaparib or vehicle	cell line	technical replicate	viability, normalised (%)
1	RAB32 (RAB32, member RAS oncogene family)	Rucaparib	OCI-C5x (clear cell)	1	71.8 (active)
2	RAB32 (RAB32, member RAS oncogene family)	Rucaparib	OCI-C5x (clear cell)	2	50.3 (active)
3	RAB32 (RAB32, member RAS oncogene family)	Rucaparib	OCI-C5x (clear cell)	3	43.2 (active)
4	RAB32 (RAB32, member RAS oncogene family)	Rucaparib	OCI-P5x (serous)	1	122
5	RAB32 (RAB32, member RAS oncogene family)	Rucaparib	OCI-P5x (serous)	2	101
6	RAB32 (RAB32, member RAS oncogene family)	Rucaparib	OCI-P5x (serous)	3	89.5
7	RAB32 (RAB32, member RAS oncogene family)	Vehicle	OCI-C5x (clear cell)	1	63.5 (active)
8	RAB32 (RAB32, member RAS oncogene family)	Vehicle	OCI-C5x (clear cell)	2	72.3 (active)
9	RAB32 (RAB32, member RAS oncogene family)	Vehicle	OCI-C5x (clear cell)	3	50.2 (active)
10	RAB32 (RAB32, member RAS oncogene family)	Vehicle	OCI-P5x (serous)	1	88.8
11	RAB32 (RAB32, member RAS oncogene family)	Vehicle	OCI-P5x (serous)	2	78 (active)
12	RAB32 (RAB32, member RAS oncogene family)	Vehicle	OCI-P5x (serous)	3	72.9 (active)
13	PIK3C3 (phosphatidylinositol 3-kinase catalytic subunit type 3)	Rucaparib	OCI-C5x (clear cell)	1	60.4 (active)
14	PIK3C3 (phosphatidylinositol 3-kinase catalytic subunit type 3)	Rucaparib	OCI-C5x (clear cell)	2	60.9 (active)
15	PIK3C3 (phosphatidylinositol 3-kinase catalytic subunit type 3)	Rucaparib	OCI-C5x (clear cell)	3	48.1 (active)
16	PIK3C3 (phosphatidylinositol 3-kinase catalytic subunit type 3)	Rucaparib	OCI-P5x (serous)	1	84.9
17	PIK3C3 (phosphatidylinositol 3-kinase catalytic subunit type 3)	Rucaparib	OCI-P5x (serous)	2	87.4
18	PIK3C3 (phosphatidylinositol 3-kinase catalytic subunit type 3)	Rucaparib	OCI-P5x (serous)	3	89.6
19	PIK3C3 (phosphatidylinositol 3-kinase catalytic subunit type 3)	Vehicle	OCI-C5x (clear cell)	1	66 (active)
20	PIK3C3 (phosphatidylinositol 3-kinase catalytic subunit type 3)	Vehicle	OCI-C5x (clear cell)	2	56.6 (active)
21	PIK3C3 (phosphatidylinositol 3-kinase catalytic subunit type 3)	Vehicle	OCI-C5x (clear cell)	3	69.7 (active)
22	PIK3C3 (phosphatidylinositol 3-kinase catalytic subunit type 3)	Vehicle	OCI-P5x (serous)	1	77.9 (active)
23	PIK3C3 (phosphatidylinositol 3-kinase catalytic subunit type 3)	Vehicle	OCI-P5x (serous)	2	78.8 (active)
24	PIK3C3 (phosphatidylinositol 3-kinase catalytic subunit type 3)	Vehicle	OCI-P5x (serous)	3	98.6

Reformatted: results already given
target gene | rucaparib or vehicle | cell line | technical replicate | viability, normalised (%)
RAB32 (RAB32, member RAS oncogene family) | Vehicle | OCI-C5x (clear cell) | 1 | 63.5 (active)
RAB32 (RAB32, member RAS oncogene family) | Vehicle | OCI-C5x (clear cell) | 2 | 72.3 (active)
